Data taken from PubChem BioAssay AID248 (DTP/NCI, 2004).
The list is a part of this screen's results and no random one: it is rich in T/C values a quarter to a half above the control, in often repeated tests (any T/C) and in doses without a T/C. Further doses and runs are listed elsewhere. T/C is the treated group as % of the vehicle group. Some entries give survivors of the animals treated and no T/C: the source holds a T/C of zero for them, seemingly a mark for toxic or unscored doses. Some doses without a T/C left all or most animals alive at the check, yet need not have been tolerated: the source hardly ever lists a survival T/C far under the control, and the zero likely stands for such cases as well. Survivors were counted at the toxicity check, usually on the fifth day, unless a day is given; later deaths do not show. Schedule codes are those of the source, taken here to give the interval after Q, in days (D) or hours (H), and the number of doses after X. Some entries hold several experiments; their values stand side by side, smallest first. Some schedules carry Z or #; the key to these is not given. Where survival is the endpoint, the PubChem record calls one and a half times the control and up active, and a quarter to a half above the control has no call in these data; cut-offs in other NCI protocols can differ. Some T/C values carry the count of animals alive at the toxicity check (mostly the fifth day); without a count, all were alive then.

Tested on: L1210 leukemia ip in BDF1 mice, survival T/C
Test: NCI In Vivo Anticancer Drug Screen. Data for tumor model L1210 Leukemia (intraperitoneal) in B6D2F1 (BDF1) mice
Details: T/C endpoint: mean survival time, higher T/C = longer survival
[1] = dose: 400.0 mg/kg/injection, schedule: Q01DX001 (ip), vehicle: carboxymethylcellulose (CMC)
[2] = dose: 200.0 mg/kg/injection, schedule: Q04DX002 (ip), vehicle: saline with Tween-80
[3] = dose: 400.0 mg/kg/injection, schedule: Q04DX002 (ip), vehicle: saline with Tween-80
[4] = dose: 25.0 mg/kg/injection, schedule: Q01DX009 (ip), vehicle: saline with Tween-80
[5] = dose: 50.0 mg/kg/injection, schedule: Q01DX009 (ip), vehicle: saline with Tween-80
[6] = dose: 100.0 mg/kg/injection, schedule: Q01DX009 (ip), vehicle: saline with Tween-80

For `NC(N)=N/N=C(\c1ccc(F)cc1)c1ccc(C(F)(F)F)cc1`, the survivor count (dose: 75.0 mg/kg/injection, schedule: Q01DX001 (ip), vehicle: other) was 0 of 6, the survivor count (dose: 150.0 mg/kg/injection, schedule: Q01DX001 (ip), vehicle: other) was 0 of 6 and the survivor count (dose: 300.0 mg/kg/injection, schedule: Q01DX001 (ip), vehicle: other) was 0 of 6.

For `COc1cc([C@@H]2c3cc4c(cc3[C@H](O)[C@H]3COC(=O)[C@@H]23)OCO4)cc(OC)c1OC`, the survivor count (dose: 7.5 mg/kg/injection, schedule: Q01DX Z (ip), vehicle: methylcellulose (MC)) was 6 of 6, the survivor count (dose: 36.0 mg/kg/injection, schedule: Q01DX Z (ip), vehicle: methylcellulose (MC)) was 6 of 6 and the T/C (dose: 50.0 mg/kg/injection, schedule: Q01DX009 (ip), vehicle: saline) was 134 % of control. For the same compound, the survivor count (dose: 54.0 mg/kg/injection, schedule: Q01DX Z (ip), vehicle: methylcellulose (MC)) was 5 of 6, the survivor count (dose: 60.0 mg/kg/injection, schedule: Q01DX Z (ip), vehicle: methylcellulose (MC)) was 4 of 6 and the survivor count (dose: 96.0 mg/kg/injection, schedule: Q01DX009 (ip), vehicle: Klucel (hydroxypropylcellulose) (HPC)) was 5 of 6. For the same compound, the T/C (dose: 100.0 mg/kg/injection, schedule: Q01DX001 (ip), vehicle: saline) was 125 [5 of 6 alive] and 143 % of control [5 of 6 alive], the survivor count (dose: 115.0 mg/kg/injection, schedule: Q01DX009 (ip), vehicle: saline) was 2 of 6 and the survivor count (dose: 170.0 mg/kg/injection, schedule: Q01DX009 (ip), vehicle: saline) was 3 of 6. The T/C (dose: 178.0 mg/kg/injection, schedule: Q01DX001 (ip), vehicle: carboxymethylcellulose (CMC)) was 126 % of control, the T/C (dose: 200.0 mg/kg/injection, schedule: Q01DX001 (ip), vehicle: saline) was 135 % of control [5 of 6 alive] and the survivor count (dose: 255.0 mg/kg/injection, schedule: Q01DX009 (ip), vehicle: saline) was 2 of 6. For the same compound, the T/C (dose: 267.0 mg/kg/injection, schedule: Q01DX001 (ip), vehicle: carboxymethylcellulose (CMC)) was 135 % of control, the T/C [1] was 136 % of control and the survivor count (dose: 400.0 mg/kg/injection, schedule: Q01DX001 (ip), vehicle: saline) was 2 of 6. For the same compound, the survivor count (dose: 600.0 mg/kg/injection, schedule: Q01DX001 (ip), vehicle: carboxymethylcellulose (CMC)) was 0 of 4.

With `CC(=O)OC1C(=O)C(O)C(C)OC1O[C@@H]1C[C@@]2(C)[C@@H]3CC=C4[C@@H](C[C@H](O)C(=O)C4(C)C)[C@]3(C)C(=O)C[C@]2(C)[C@H]1[C@@](C)(O)C(=O)/C=C/C(C)(C)O` (some centres not stated) the survivor count (dose: 5.0 mg/kg/injection, schedule: Q01DX009 (ip), vehicle: saline) was 2 of 6 and the survivor count (dose: 10.0 mg/kg/injection, schedule: Q01DX009 (ip), vehicle: saline) was 0 of 6.

In the case of `CSc1nn2c(SC)nnc2s1`, the survivor count [1] is reported as 0 of 4.

In the case of `CCCCCCCSc1ncnc2c1ncn2CO`, the T/C (dose: 175.0 mg/kg/injection, schedule: Q01DX009 (ip), vehicle: other) is reported as 135 % of control [4 of 6 alive], the T/C (dose: 175.0 mg/kg/injection, schedule: Q01DX009 (ip), vehicle: saline) is reported as 125 % of control and the T/C (dose: 265.0 mg/kg/injection, schedule: Q01DX009 (ip), vehicle: other) is reported as 138 % of control. For the same compound, the T/C (dose: 265.0 mg/kg/injection, schedule: Q01DX009 (ip), vehicle: saline) was 142 % of control [5 of 6 alive].

With `Cc1cc(=O)n2c3c(cc(C#N)cc13)OC2` the survivor count (dose: 200.0 mg/kg/injection, schedule: Q04DX002 (ip), vehicle: Klucel (hydroxypropylcellulose) (HPC)) was 5 of 6.

For `O=C(CCl)OCCCl`, the survivor count [2] was 0 of 3 and the survivor count [3] was 0 of 3.

With `COc1ccc2c(=O)c(C)c(C)oc2c1CN1CCOCC1` the survivor count (dose: 12.5 mg/kg/injection, schedule: Q01DX009 (ip), vehicle: saline) was 6 of 6.

With `Cc1nc(N)cc(=O)[nH]1` the survivor count (dose: 400.0 mg/kg/injection, schedule: Q01DX009 (ip), vehicle: water) was 6 of 6.

In the case of `Cc1ncc(C(=O)c2ccccc2)n1Cc1ccccc1`, the T/C [4] is reported as 94 and 110 % of control, the survivor count [4] is reported as 3 of 3 and 6 of 6 and the T/C [5] is reported as 104 and 118 % of control. For the same compound, the survivor count [5] was 3 of 3 and 6 of 6, the T/C [6] was 96, 100, 107 % of control and the survivor count [6] was 3 of 3 and 6 of 6. The T/C (dose: 100.0 mg/kg/injection, schedule: Q04DX002 (ip), vehicle: saline with Tween-80) was 88, 92, 105, 113 % of control, the T/C [2] was 96, 100, 101 % of control and the survivor count [2] was 3 of 3. For the same compound, the T/C [3] was 88, 92, 96, 97 % of control.

In the case of `C=CCc1cccc(OC)c1OCCN(CC)CC`, the survivor count (dose: 100.0 mg/kg/injection, schedule: Q01DX009 (ip), vehicle: saline) is reported as 0 of 6, the survivor count (dose: 200.0 mg/kg/injection, schedule: Q01DX009 (ip), vehicle: saline) is reported as 0 of 6 and the survivor count (dose: 400.0 mg/kg/injection, schedule: Q01DX009 (ip), vehicle: saline) is reported as 0 of 6.

In the case of `Clc1cc(CBr)c(Cl)c(Cl)c1CBr`, the survivor count (dose: 100.0 mg/kg/injection, schedule: Q04DX003 (ip), vehicle: Klucel (hydroxypropylcellulose) (HPC)) is reported as 0 of 6, the survivor count (dose: 200.0 mg/kg/injection, schedule: Q04DX003 (ip), vehicle: Klucel (hydroxypropylcellulose) (HPC)) is reported as 0 of 6 and the survivor count (dose: 400.0 mg/kg/injection, schedule: Q04DX003 (ip), vehicle: Klucel (hydroxypropylcellulose) (HPC)) is reported as 1 of 6.
